From paper PMC10723533

Columns and labels:
[1] = target: T1, Paa1-L-YFP (S. pombe) (UniProt Q9UT08); assay: affinity purification with mass spectrometry; YFP-tagged bait (Paa1-L-YFP or Pab1-L-YFP) on GFP-Trap beads; cells 1 hour in EMM2-N, crosslinked with 1% formaldehyde for 10 min at 25 °C; lysis buffer 25 mM Tris HCl pH 7.5, 150 mM NaCl, 0.5% SDS (diluted to 0.1%), 1% NP40; washes with 500 mM NaCl
T1 sequence: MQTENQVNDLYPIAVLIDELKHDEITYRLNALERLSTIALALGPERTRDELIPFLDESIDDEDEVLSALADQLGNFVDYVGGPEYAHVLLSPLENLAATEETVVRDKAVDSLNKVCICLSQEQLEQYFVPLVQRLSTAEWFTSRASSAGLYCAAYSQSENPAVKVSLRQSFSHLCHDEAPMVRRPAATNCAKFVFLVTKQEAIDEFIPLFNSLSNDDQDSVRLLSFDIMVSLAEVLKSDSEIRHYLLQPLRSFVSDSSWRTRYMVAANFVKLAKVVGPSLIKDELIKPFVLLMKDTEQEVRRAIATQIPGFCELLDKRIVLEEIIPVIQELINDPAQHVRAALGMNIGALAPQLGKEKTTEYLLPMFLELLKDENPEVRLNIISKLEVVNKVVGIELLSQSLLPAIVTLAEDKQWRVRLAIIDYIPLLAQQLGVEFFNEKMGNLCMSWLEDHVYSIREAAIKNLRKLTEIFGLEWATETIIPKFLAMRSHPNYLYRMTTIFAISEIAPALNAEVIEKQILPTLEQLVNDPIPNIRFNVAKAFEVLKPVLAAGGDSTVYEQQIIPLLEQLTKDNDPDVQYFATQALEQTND

[2] = target: Pab1-L-YFP (S. pombe); assay: as above

binding [1]: binds | binding [2]: binds
B1: Trm112 (protein, UniProt Q09723 1-126)
chain: MKLLTANFLNCSNKKCTSSPEAFPLDVVDAKLAIQQLELKPEFLIGIMPRIDWNALLKTTRQLGNYSLPDEKPDLVDDSDEVLLKSLHNVLLETEITEGKMVCGNCGHVYPIFEGIPNMLLSESEI

Results are given in words; binding and its absence hold for the method and conditions named. Binding seen in cells or lysates may run through a third protein. A yes stands for co-enrichment or nearness to the bait. Other partners may have been found. For some assays here: Where a sequence is shown, tags or fusion partners need not be part of it.
